This passage reports binding results from patent US20130331325A1.

Sequences of proteins named here, by UniProt entry; tags and fusion partners are left off. A change or cut given only in a name is not applied to a line headed by its entry.
UniProt Q99N32: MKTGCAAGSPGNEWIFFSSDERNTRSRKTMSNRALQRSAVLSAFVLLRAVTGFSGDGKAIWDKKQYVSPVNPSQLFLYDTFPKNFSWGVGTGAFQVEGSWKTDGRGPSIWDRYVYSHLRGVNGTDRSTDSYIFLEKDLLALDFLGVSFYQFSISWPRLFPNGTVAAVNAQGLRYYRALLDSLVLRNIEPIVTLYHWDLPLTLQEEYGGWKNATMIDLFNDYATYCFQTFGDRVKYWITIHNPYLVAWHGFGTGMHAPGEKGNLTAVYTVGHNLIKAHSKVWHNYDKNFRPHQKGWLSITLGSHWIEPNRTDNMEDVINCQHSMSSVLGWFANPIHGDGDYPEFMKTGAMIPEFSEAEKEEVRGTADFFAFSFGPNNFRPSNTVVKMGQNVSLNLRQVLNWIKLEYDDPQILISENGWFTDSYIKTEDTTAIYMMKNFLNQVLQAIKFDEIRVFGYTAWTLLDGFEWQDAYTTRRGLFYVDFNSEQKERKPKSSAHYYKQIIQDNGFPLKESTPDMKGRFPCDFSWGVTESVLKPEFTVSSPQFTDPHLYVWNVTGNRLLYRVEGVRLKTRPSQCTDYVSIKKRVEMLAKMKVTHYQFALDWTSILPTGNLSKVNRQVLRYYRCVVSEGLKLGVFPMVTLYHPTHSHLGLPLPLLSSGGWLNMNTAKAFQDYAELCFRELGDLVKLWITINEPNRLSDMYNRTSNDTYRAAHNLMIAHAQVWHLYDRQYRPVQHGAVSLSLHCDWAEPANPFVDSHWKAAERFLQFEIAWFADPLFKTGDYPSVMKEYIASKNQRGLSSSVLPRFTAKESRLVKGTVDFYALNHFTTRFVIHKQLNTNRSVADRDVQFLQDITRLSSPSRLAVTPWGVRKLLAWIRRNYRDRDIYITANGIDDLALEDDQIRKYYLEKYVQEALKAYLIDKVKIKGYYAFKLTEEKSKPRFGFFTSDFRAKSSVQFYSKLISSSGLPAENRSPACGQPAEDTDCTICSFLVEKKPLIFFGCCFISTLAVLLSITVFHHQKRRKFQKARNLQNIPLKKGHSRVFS
UniProt P11362: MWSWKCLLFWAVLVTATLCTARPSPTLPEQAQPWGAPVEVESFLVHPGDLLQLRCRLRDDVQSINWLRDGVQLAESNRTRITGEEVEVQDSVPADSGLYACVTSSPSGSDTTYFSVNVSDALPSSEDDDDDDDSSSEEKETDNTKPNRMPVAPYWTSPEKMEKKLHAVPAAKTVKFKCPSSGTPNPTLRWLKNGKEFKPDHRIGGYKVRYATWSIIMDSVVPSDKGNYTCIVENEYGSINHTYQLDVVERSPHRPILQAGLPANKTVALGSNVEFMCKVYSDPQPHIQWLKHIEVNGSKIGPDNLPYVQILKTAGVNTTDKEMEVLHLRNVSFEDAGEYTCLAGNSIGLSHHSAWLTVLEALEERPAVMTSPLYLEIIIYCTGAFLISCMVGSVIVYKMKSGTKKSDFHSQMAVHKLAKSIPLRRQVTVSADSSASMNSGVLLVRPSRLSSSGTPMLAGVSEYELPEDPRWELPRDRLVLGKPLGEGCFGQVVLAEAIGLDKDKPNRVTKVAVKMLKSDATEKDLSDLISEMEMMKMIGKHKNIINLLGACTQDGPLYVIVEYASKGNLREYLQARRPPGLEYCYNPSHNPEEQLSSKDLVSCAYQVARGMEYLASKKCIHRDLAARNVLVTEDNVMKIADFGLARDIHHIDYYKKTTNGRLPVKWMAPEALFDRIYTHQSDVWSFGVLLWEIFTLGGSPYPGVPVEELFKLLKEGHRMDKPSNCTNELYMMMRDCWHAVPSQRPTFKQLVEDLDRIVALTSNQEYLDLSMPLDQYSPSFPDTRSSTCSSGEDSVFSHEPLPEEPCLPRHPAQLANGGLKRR

The target of assay [1] is T1, binary complex of FGFR1c ligand-binding domain with βKlotho ectodomain (murine; human) (UniProt Q99N32+P11362). Nature of the assay: SPR competition: chimera with βKlotho-FGFR1c complex over immobilized FGF21 (competitor).
For assay [2], the target named is T1, binary complex of FGFR1c ligand-binding domain with βKlotho ectodomain (murine; human). The experiment in a line: SPR competition: increasing chimera with a fixed concentration of βKlotho-FGFR1c complex over immobilized FGF21.

Results are given in words; binding and its absence hold for the method and conditions named. Some entries that bind do so weakly or less than the wild type.

B1: FGF2^ΔHBScore-FGF21^C-tail chimera (designed binder)
chain: MAAGSITTLPALPEDGGSGAFPPGHFKDPKRLYCKNGGFFLRIHPDGRVDGVREKSDPHIKLQLQAEERGVVSIKGVSANRYLAMKEDGRLLASKSVTDECFFFERLESNNYNTYRSRKYTSWYVALDQTGQYVLGSKTGPGQKAILFLPMPGLPPALPEPPGILAPQPPDVGSSDPLSMVGPSQGRSPSYAS
Consider B1, for which the binding result in assay [1] and in assay [2] was “binds” in each case.
